Test results published in the supplement of paper PMC10849652.
The other results are listed elsewhere or left out.

Chains of the proteins cited; added tags and fusions are not shown. Lines headed by an entry give the natural chain unless they say otherwise; changes in a name come on top.
UniProt O75131: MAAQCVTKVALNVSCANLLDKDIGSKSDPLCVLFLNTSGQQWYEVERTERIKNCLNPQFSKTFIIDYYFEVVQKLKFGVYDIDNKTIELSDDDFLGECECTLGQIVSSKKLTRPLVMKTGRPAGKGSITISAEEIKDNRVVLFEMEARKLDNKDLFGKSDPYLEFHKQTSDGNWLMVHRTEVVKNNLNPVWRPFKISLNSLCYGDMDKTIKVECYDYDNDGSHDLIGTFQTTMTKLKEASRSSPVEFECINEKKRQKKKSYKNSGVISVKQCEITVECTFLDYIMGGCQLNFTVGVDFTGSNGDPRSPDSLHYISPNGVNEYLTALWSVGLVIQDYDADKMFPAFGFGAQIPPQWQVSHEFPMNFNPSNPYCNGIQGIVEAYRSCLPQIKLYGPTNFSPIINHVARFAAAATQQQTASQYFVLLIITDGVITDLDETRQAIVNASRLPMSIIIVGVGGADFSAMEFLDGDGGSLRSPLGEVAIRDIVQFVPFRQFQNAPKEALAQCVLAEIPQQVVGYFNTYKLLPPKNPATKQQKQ
UniProt Q9NZJ6: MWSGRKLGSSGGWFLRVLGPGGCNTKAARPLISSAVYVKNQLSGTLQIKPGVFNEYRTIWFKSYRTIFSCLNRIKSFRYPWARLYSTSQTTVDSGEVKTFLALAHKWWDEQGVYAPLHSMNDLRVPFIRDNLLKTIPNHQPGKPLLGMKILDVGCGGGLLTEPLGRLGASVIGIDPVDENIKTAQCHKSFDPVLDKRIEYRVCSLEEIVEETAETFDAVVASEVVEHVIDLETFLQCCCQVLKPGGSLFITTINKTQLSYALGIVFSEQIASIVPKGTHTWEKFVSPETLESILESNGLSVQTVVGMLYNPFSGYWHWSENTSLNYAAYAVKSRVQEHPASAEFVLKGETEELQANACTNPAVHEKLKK
UniProt P36551: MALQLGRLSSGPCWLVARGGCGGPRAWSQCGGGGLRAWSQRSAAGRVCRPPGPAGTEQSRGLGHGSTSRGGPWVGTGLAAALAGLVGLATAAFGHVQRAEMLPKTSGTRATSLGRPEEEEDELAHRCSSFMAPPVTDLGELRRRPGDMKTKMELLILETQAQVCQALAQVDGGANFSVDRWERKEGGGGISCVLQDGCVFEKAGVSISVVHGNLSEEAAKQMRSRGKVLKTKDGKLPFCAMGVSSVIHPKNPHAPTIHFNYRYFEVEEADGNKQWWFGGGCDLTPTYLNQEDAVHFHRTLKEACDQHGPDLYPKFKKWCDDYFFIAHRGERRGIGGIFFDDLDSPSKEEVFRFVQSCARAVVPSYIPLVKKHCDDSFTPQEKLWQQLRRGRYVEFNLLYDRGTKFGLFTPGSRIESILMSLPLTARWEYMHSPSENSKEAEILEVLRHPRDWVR
UniProt P61923: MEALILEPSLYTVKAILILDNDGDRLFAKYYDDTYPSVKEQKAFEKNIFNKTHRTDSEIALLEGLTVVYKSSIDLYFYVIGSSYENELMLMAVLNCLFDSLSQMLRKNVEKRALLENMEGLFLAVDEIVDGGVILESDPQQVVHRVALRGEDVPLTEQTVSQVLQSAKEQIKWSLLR
UniProt P57737: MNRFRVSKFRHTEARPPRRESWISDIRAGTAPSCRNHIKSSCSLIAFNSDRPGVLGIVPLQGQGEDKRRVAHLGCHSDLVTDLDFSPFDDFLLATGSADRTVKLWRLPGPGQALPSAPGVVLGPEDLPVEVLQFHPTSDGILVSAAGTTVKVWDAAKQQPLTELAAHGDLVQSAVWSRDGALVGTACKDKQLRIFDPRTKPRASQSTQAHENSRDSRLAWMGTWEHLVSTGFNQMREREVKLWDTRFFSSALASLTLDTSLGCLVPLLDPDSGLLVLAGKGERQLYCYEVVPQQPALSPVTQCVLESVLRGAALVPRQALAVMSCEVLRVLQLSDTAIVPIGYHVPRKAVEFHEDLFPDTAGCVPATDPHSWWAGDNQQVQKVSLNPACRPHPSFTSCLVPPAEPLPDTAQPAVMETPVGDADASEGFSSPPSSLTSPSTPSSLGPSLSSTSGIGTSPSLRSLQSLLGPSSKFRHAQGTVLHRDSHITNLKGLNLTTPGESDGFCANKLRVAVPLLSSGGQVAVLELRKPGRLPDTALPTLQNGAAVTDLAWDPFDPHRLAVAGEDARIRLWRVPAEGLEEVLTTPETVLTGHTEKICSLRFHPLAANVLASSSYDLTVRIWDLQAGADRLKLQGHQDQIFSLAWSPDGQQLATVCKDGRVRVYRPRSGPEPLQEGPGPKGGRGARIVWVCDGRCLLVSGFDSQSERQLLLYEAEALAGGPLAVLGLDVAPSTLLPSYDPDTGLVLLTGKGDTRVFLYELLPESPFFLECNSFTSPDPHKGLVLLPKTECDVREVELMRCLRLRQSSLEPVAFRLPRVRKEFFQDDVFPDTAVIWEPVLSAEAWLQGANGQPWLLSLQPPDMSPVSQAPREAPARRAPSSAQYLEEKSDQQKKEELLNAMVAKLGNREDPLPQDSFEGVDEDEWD
UniProt P53621: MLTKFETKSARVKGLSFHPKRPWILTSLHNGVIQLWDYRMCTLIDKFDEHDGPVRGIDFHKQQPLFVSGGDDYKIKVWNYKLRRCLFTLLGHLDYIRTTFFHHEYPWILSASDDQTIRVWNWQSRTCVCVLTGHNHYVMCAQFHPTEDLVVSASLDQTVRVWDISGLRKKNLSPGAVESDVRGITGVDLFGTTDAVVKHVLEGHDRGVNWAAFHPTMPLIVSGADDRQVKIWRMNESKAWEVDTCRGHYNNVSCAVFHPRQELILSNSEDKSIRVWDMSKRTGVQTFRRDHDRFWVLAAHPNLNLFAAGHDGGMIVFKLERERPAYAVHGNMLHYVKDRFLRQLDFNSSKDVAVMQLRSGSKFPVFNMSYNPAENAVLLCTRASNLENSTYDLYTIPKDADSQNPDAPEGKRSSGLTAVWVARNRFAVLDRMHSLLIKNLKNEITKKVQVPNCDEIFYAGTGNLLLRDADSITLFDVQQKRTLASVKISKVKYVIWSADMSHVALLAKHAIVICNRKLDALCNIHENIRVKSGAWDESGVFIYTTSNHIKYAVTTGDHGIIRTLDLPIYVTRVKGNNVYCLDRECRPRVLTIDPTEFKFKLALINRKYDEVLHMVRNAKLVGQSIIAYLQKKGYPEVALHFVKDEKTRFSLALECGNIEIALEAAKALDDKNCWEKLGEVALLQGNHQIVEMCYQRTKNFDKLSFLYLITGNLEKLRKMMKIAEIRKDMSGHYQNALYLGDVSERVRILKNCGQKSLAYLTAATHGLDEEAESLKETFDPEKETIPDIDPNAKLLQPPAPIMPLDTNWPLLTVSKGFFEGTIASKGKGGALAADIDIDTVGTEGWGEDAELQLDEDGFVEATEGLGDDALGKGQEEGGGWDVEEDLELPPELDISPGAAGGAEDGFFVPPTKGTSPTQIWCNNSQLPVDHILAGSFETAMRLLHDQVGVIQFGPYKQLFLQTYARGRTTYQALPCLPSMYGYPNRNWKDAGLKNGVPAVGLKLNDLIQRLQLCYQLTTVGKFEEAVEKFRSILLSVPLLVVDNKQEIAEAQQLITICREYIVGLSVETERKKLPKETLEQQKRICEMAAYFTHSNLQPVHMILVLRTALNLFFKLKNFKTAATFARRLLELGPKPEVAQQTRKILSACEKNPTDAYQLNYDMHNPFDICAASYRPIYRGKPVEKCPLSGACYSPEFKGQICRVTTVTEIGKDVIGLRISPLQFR
UniProt P14406, whole entry, looked up: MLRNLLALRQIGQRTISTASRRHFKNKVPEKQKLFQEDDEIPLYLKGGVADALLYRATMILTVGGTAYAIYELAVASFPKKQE
UniProt O14548: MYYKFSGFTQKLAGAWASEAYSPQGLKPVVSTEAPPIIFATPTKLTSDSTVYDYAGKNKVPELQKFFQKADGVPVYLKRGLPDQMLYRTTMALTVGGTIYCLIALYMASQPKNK
UniProt Q7L5N1: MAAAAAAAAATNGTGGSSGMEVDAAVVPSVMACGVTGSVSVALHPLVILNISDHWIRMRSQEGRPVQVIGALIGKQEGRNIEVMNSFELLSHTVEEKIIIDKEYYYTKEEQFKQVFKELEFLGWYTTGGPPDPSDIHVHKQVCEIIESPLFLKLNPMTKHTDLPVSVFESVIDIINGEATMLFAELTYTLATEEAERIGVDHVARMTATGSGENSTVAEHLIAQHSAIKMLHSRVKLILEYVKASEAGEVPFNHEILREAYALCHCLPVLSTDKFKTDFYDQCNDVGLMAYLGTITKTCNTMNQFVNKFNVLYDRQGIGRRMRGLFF
UniProt A4D0V7: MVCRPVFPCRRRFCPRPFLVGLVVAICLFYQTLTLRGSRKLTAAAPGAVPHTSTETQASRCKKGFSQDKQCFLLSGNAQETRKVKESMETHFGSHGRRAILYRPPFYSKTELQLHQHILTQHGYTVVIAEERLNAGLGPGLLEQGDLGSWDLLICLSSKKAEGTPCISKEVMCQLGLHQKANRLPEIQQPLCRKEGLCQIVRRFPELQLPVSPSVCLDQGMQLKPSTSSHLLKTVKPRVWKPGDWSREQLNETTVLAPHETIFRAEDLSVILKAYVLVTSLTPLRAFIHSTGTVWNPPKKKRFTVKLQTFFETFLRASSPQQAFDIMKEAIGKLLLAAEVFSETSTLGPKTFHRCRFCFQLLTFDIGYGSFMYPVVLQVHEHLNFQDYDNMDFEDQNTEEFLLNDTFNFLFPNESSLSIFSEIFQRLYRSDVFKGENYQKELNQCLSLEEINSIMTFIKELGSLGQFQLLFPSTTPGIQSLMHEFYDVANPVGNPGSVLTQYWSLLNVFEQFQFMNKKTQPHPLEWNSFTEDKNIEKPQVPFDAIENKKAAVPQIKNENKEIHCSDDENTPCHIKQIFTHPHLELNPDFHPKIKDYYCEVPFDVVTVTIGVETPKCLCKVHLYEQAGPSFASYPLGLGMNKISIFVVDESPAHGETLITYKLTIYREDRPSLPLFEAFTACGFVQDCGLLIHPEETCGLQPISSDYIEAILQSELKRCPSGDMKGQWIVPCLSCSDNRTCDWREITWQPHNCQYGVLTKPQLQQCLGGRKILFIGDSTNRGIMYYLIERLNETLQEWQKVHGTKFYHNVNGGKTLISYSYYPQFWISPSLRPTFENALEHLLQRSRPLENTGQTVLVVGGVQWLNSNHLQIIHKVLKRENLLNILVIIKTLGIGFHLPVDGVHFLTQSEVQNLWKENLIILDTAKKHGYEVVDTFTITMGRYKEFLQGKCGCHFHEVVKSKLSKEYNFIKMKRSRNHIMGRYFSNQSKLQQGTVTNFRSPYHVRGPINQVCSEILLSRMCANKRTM
UniProt Q9BR76, whole entry, looked up: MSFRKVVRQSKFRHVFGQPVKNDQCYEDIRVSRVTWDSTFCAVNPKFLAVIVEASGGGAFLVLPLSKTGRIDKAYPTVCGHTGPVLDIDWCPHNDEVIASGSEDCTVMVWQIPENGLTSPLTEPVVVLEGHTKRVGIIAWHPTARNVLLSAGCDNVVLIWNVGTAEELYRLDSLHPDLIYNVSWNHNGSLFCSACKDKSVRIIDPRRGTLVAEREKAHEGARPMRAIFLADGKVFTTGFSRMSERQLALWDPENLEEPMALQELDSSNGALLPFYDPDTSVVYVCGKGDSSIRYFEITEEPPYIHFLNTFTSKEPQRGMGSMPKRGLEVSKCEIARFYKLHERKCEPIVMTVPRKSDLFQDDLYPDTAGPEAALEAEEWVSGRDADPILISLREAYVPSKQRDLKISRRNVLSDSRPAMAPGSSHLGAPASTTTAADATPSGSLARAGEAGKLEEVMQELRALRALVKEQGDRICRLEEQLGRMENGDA
UniProt O95825: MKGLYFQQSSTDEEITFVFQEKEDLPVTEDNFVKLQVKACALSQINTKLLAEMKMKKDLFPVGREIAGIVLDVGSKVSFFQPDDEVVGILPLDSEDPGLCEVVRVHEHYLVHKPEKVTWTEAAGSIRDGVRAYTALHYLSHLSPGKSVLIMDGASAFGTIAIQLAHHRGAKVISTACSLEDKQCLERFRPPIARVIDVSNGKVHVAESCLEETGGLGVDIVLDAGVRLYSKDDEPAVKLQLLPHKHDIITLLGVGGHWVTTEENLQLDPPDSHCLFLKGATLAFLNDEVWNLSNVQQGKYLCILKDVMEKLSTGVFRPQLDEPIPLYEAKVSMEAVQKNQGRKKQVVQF
UniProt Q9UBW8: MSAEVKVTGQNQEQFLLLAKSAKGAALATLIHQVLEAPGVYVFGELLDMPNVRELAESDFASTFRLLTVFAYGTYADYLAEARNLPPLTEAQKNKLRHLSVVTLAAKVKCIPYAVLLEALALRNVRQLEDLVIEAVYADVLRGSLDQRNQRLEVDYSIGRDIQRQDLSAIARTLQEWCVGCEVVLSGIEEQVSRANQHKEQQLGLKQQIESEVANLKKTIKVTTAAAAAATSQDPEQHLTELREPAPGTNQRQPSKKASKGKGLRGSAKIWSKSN
UniProt O75629: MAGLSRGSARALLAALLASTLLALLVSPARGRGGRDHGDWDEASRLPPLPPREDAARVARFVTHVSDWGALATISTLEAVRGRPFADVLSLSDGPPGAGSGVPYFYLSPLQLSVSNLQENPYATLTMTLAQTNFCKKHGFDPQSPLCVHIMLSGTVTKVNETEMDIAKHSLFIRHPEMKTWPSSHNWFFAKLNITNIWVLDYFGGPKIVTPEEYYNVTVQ

What was measured:
Experiment in all cases: log2 fold change, soluble protein after heating vs DMSO (PISA); higher = thermal stabilisation; K562 cells, 10 uM, 30 min; active = over 0.2 and 3.5 SD of the protein, either way, in both replicates (recomputed)
[1] = compound: CS(=O)(=O)c1ccc(-c2cnc(N)c(C(=O)Nc3ccccc3)n2)cc1
Method in brief: (§1)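 Values are thermal stability changes relative to control samples and are taken from duplicates. They are stated as log2 fold changes. Before quantification by TMTpro 16plex LC-MS/MS with equalised channel sums, K562 cells at 2×10^6 cells/mL were treated with 10 μM compound for 30 min, heated in aliquots for 3 min across 48°C-58°C, pooled, extracted in PBS with 0.5% NP-40 at 4°C, and centrifuged at 21,000xg for 90 min to give the soluble supernatant.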

crizotinib = compound: C[C@@H](Oc1cc(-c2cnn(C3CCNCC3)c2)cnc1N)c1c(Cl)ccc(F)c1Cl [crizotinib]
Method in brief: as §1

[2] = compound: C[C@@H]1COCCN1C2=NC(=NC(=C2)C3(CC3)S(=O)(=O)C)C4=C5C=CNC5=CC=C4
Method in brief: as §1

[3] = compound: C[C@H](C1=CC=C(C=C1)C(=O)NC2=C3C=CNC3=NC=C2)N
Method in brief: as §1

duvelisib = compound: C[C@H](Nc1ncnc2nc[nH]c12)c1cc2cccc(Cl)c2c(=O)n1-c1ccccc1 [duvelisib]
Method in brief: as §1

gandotinib = compound: Cc1cc(Nc2cc(CN3CCOCC3)c3nc(C)c(Cc4ccc(Cl)cc4F)n3n2)n[nH]1 [gandotinib]
Method in brief: as §1

tozasertib = compound: Cc1cc(Nc2cc(N3CCN(C)CC3)nc(Sc3ccc(NC(=O)C4CC4)cc3)n2)n[nH]1 [tozasertib]
Method in brief: as §1

[4] = compound: Cc1cc(SCc2sc(-c3ccc(C(F)(F)F)cc3)nc2C)ccc1OCC(=O)O
Method in brief: as §1

doramapimod = compound: Cc1ccc(-n2nc(C(C)(C)C)cc2NC(=O)Nc2ccc(OCCN3CCOCC3)c3ccccc23)cc1 [doramapimod]
Method in brief: as §1

ispinesib = compound: Cc1ccc(C(=O)N(CCCN)[C@@H](c2nc3cc(Cl)ccc3c(=O)n2Cc2ccccc2)C(C)C)cc1 [ispinesib]
Method in brief: as §1

bafetinib = compound: Cc1ccc(NC(=O)c2ccc(CN3CC[C@H](N(C)C)C3)c(C(F)(F)F)c2)cc1Nc1nccc(-c2cncnc2)n1 [bafetinib]
Method in brief: as §1

[5] = compound: Cc1cccc(CC(=O)N2CCc3c2ccc(-c2cn(C)c4ncnc(N)c24)c3F)n1
Method in brief: as §1

nilotinib = compound: Cc1cn(-c2cc(NC(=O)c3ccc(C)c(Nc4nccc(-c5cccnc5)n4)c3)cc(C(F)(F)F)c2)cn1 [nilotinib]
Method in brief: as §1

[6] = compound: Cc1nc(Nc2n[nH]c3c2CN(C(=O)N[C@H](CN(C)C)c2ccccc2)C3(C)C)c2sccc2n1
Method in brief: as §1

dasatinib = compound: Cc1nc(Nc2ncc(C(=O)Nc3c(C)cccc3Cl)s2)cc(N2CCN(CCO)CC2)n1 [dasatinib]
Method in brief: as §1

[7] = compound: Cc1ncc(-c2ccnc(Nc3ccc(S(C)(=O)=O)cc3)n2)n1C(C)C
Method in brief: as §1

[8] = compound: Cn1cc(-c2ccc3c(c2)CCN3C(=O)Cc2cccc(C(F)(F)F)c2)c2c(N)ncnc21
Method in brief: as §1

[9] = compound: Cn1cc(-c2ccc3nnc(C(F)(F)c4ccc5ncccc5c4)n3n2)cn1
Method in brief: as §1

tipifarnib = compound: Cn1cncc1[C@@](N)(c1ccc(Cl)cc1)c1ccc2c(c1)c(-c1cccc(Cl)c1)cc(=O)n2C [tipifarnib]
Method in brief: as §1

mubritinib = compound: FC(F)(F)c1ccc(/C=C/c2nc(COc3ccc(CCCCn4ccnn4)cc3)co2)cc1 [mubritinib]
Method in brief: as §1

Measured: log2 fold change

CPNE3 (UniProt O75131)
inactive: [1] 0.006 | crizotinib 0.1 | [2] -0.016 | [3] -0.112 | duvelisib 0 | gandotinib 0.01 | tozasertib -0.061 | [4] -0.016 | doramapimod -0.067 | ispinesib 0.126 | bafetinib -0.02 | [5] 0.004 | nilotinib 0.046 | [6] -0.083 | dasatinib 0.008 | [7] 0.007 | [8] 0.04 | [9] -0.036 | tipifarnib 0.013 | mubritinib 0.105

COQ3 (UniProt Q9NZJ6)
inactive: [1] 0.034 | crizotinib -0.206 | [2] 0.072 | [3] -0.069 | duvelisib -0.113 | gandotinib 0.038 | tozasertib 0.08 | [4] 0.026 | doramapimod 0.051 | ispinesib -0.016 | bafetinib -0.042 | [5] -0.021 | nilotinib -0.025 | [6] -0.001 | dasatinib 0.014 | [7] -0.092 | [8] -0.057 | [9] -0.106 | tipifarnib 0.019 | mubritinib 0.078

COQ5 (UniProt Q5HYK3)
inactive: [1] 0.045 | crizotinib -0.069 | [2] 0.093 | [3] 0.02 | duvelisib 0.102 | gandotinib 0.022 | tozasertib -0.083 | [4] 0.02 | doramapimod 0.003 | ispinesib -0.016 | bafetinib -0.099 | [5] -0.057 | nilotinib 0.031 | [6] 0.001 | dasatinib -0.086 | [7] 0.001 | [8] 0.049 | [9] -0.005 | tipifarnib 0.02 | mubritinib 0.036

CPOX (UniProt P36551)
inactive: [1] 0.012 | crizotinib 0.089 | [2] 0.042 | [3] -0.067 | duvelisib 0.116 | gandotinib 0.073 | tozasertib 0.005 | [4] 0.032 | doramapimod -0.035 | ispinesib 0.03 | bafetinib 0.02 | [5] -0.006 | nilotinib 0.092 | [6] 0.023 | dasatinib 0.043 | [7] -0.023 | [8] 0.01 | [9] 0.029 | tipifarnib -0.017 | mubritinib -0.023

COPZ1 isoform 4 (UniProt P61923)
inactive: [1] -0.093 | crizotinib 0.074 | [2] 0.164 | [3] -0.122 | duvelisib 0.167 | gandotinib 0.057 | tozasertib 0.085 | [4] 0.016 | doramapimod 0.064 | ispinesib 0.223 | bafetinib 0.014 | [5] -0.095 | nilotinib -0.001 | [6] -0.044 | dasatinib 0.079 | [7] -0.031 | [8] 0.057 | [9] 0.163 | tipifarnib -0.057 | mubritinib 0.023

CORO7 isoform 3 (UniProt P57737)
inactive: [1] -0.046 | crizotinib -0.095 | [2] -0.015 | [3] -0.072 | duvelisib 0.003 | gandotinib -0.008 | tozasertib 0.013 | [4] -0.004 | doramapimod -0.023 | ispinesib -0.106 | bafetinib -0.044 | [5] -0.086 | nilotinib 0.029 | [6] -0.02 | dasatinib -0.028 | [7] 0.009 | [8] -0.028 | [9] 0.009 | tipifarnib 0.051 | mubritinib 0.028

COPA isoform 2 (UniProt P53621)
inactive: [1] 0.009 | crizotinib 0.057 | [2] 0.033 | [3] 0.002 | duvelisib 0.042 | gandotinib -0.017 | tozasertib 0.003 | [4] 0.043 | doramapimod -0.026 | ispinesib 0.131 | bafetinib -0.015 | [5] 0 | nilotinib -0.006 | [6] -0.025 | dasatinib -0.038 | [7] 0.001 | [8] 0.001 | [9] -0.021 | tipifarnib -0.011 | mubritinib 0.019

COX7A2 (UniProt P14406)
inactive: [1] -0.076 | crizotinib 0.071 | [2] 0.108 | [3] -0.009 | duvelisib 0.069 | gandotinib 0.019 | tozasertib 0.021 | [4] -0.082 | doramapimod 0.016 | ispinesib 0.085 | bafetinib -0.083 | [5] -0.01 | nilotinib 0.005 | [6] 0.034 | dasatinib 0.039 | [7] -0.103 | [8] -0.051 | [9] 0.132 | tipifarnib 0.021 | mubritinib 0.097

COX7A2L (UniProt O14548)
inactive: [1] 0.037 | crizotinib 0.024 | [2] 0.095 | [3] -0.034 | duvelisib 0.105 | gandotinib 0.008 | tozasertib 0.011 | [4] -0.032 | doramapimod -0.001 | ispinesib 0.017 | bafetinib -0.028 | [5] -0.027 | nilotinib 0.019 | [6] -0.001 | dasatinib 0.083 | [7] -0.034 | [8] 0.089 | [9] 0.184 | tipifarnib -0.073 | mubritinib 0.019

COPS6 (UniProt Q7L5N1)
inactive: [1] 0.006 | crizotinib 0.004 | [2] 0.037 | [3] -0.154 | duvelisib -0.021 | gandotinib 0.031 | tozasertib 0.056 | [4] 0.021 | doramapimod -0.031 | ispinesib 0.137 | bafetinib -0.044 | [5] 0.094 | nilotinib 0.017 | [6] -0.033 | dasatinib -0.009 | [7] 0.002 | [8] -0.028 | [9] -0.03 | tipifarnib 0.016 | mubritinib 0.001

CPED1 (UniProt A4D0V7)
inactive: [1] 0.023 | crizotinib 0.034 | [2] -0.137 | [3] 0.113 | duvelisib -0.003 | gandotinib 0.072 | tozasertib 0.013 | [4] -0.004 | doramapimod 0.081 | ispinesib -0.083 | bafetinib 0.045 | [5] -0.036 | nilotinib -0.052 | [6] -0.058 | dasatinib -0.006 | [7] 0.032 | [8] -0.118 | [9] 0.04 | tipifarnib 0.096 | mubritinib 0.041

CORO1B (UniProt Q9BR76)
inactive: [1] 0.027 | crizotinib 0.002 | [2] 0.079 | [3] -0.084 | duvelisib 0.025 | gandotinib -0.03 | tozasertib 0.014 | [4] 0.037 | doramapimod -0.022 | ispinesib 0.047 | bafetinib 0.033 | [5] 0.037 | nilotinib -0.017 | [6] -0.02 | dasatinib -0.031 | [7] -0.005 | [8] 0.108 | [9] -0.014 | tipifarnib -0.009 | mubritinib 0.049

CRYZL1 (UniProt O95825)
inactive: [1] -0.047 | crizotinib 0.042 | [2] 0.038 | [3] -0.02 | duvelisib 0.027 | gandotinib 0.005 | tozasertib -0.022 | [4] -0.03 | doramapimod -0.026 | ispinesib 0.065 | bafetinib -0.052 | [5] -0.019 | nilotinib 0.001 | [6] 0.02 | dasatinib 0.015 | [7] -0.016 | [8] 0.009 | [9] -0.003 | tipifarnib 0.007 | mubritinib 0.022

COPS7A (UniProt Q9UBW8)
inactive: [1] 0.011 | crizotinib 0.011 | [2] -0.002 | [3] -0.027 | duvelisib 0.067 | gandotinib 0.003 | tozasertib -0.054 | [4] -0.01 | doramapimod -0.003 | ispinesib 0.04 | bafetinib -0.013 | [5] -0.015 | nilotinib 0.001 | [6] -0.001 | dasatinib -0.047 | [7] -0.01 | [8] 0.044 | [9] 0.037 | tipifarnib 0.048 | mubritinib 0.046

CRPPA (UniProt A4D126)
inactive: [1] 0.025 | crizotinib 0.073 | [2] 0.081 | [3] -0.042 | duvelisib 0.052 | gandotinib -0.041 | tozasertib -0.008 | [4] -0.071 | doramapimod 0.007 | ispinesib 0.014 | bafetinib -0.035 | [5] -0.064 | nilotinib -0.016 | [6] 0.005 | dasatinib 0.013 | [7] -0.029 | [8] 0.004 | [9] 0.045 | tipifarnib 0.057 | mubritinib 0.082

2 records drawn at random from the list so far:
CPED1 (UniProt A4D0V7)
inactive: [1] 0.023 | crizotinib 0.034 | [2] -0.137 | [3] 0.113 | duvelisib -0.003 | gandotinib 0.072 | tozasertib 0.013 | [4] -0.004 | doramapimod 0.081 | ispinesib -0.083 | bafetinib 0.045 | [5] -0.036 | nilotinib -0.052 | [6] -0.058 | dasatinib -0.006 | [7] 0.032 | [8] -0.118 | [9] 0.04 | tipifarnib 0.096 | mubritinib 0.041

COPS6 (UniProt Q7L5N1)
inactive: [1] 0.006 | crizotinib 0.004 | [2] 0.037 | [3] -0.154 | duvelisib -0.021 | gandotinib 0.031 | tozasertib 0.056 | [4] 0.021 | doramapimod -0.031 | ispinesib 0.137 | bafetinib -0.044 | [5] 0.094 | nilotinib 0.017 | [6] -0.033 | dasatinib -0.009 | [7] 0.002 | [8] -0.028 | [9] -0.03 | tipifarnib 0.016 | mubritinib 0.001

Additional results:

CREG1 (UniProt O75629)
inactive: [1] 0 | crizotinib -0.022 | [2] 0.108 | [3] 0.096 | duvelisib -0.04 | gandotinib 0.04 | tozasertib 0.076 | [4] -0.03 | doramapimod 0.055 | ispinesib -0.034 | bafetinib -0.016 | [5] -0.084 | nilotinib 0.006 | [6] 0.038 | dasatinib 0.026 | [7] -0.009 | [8] 0.016 | [9] -0.08 | tipifarnib -0.025 | mubritinib -0.004
